The supplement of paper PMC10382679
Single values of this set are uncertain.

B1: Rpb7; numbered along this chain (parent)
chain: MFFIKDLSLNITLHPSFFGPRMKQYLKTKLLEEVEGSCTGKFGYILCVLDYDNIDIQRGRILPTDGSAEFNVKYRAVVFKPFKGEVVDGTVVSCSQHGFEVQVGPMKVFVTKHLMPQDLTFNAGSNPPSYQSSEDVITIKSRIRVKIEGCISQVSSIHAIGSIKEDYLGAI

Tests used:
[1] = variants of: B1; assay: log2 fold change of mutant abundance, UV-irradiated vs unirradiated; higher = more UV resistant (enriched after UV); details: with Saccharomyces cerevisiae rad7Δ rad26Δ; UV dose (J/m2): 10; genetic background: rad7Δ rad26Δ rpb7Δ + plasmid RPB7 library; outgrowth: 10 cell divisions
Experimental: (§1)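 Error-prone PCR random mutant library of yeast RPB7 (codons 2-171) on a LEU2 plasmid, shuffled into rad7Δ rad26Δ S. cerevisiae (BJ5465 background) with genomic RPB7 deleted. Cells were irradiated with 10 J/m2 UV (254 nm) or left unirradiated and grown for 10 divisions. Plasmid RPB7 amplicons were Illumina-sequenced and per-codon amino-acid counts were compared UV vs no UV with NOISeq (3 repeats, ARSyNseq batch correction). Positive log2FC means enrichment after UV, i.e. UV resistance / derepressed TCR.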

[2] = variants of: B1; assay: NOISeq theta enrichment statistic, UV-irradiated vs unirradiated (dimensionless); higher = more UV resistant (enriched after UV); details: with Saccharomyces cerevisiae rad7Δ rad26Δ; UV dose (J/m2): 10; genetic background: rad7Δ rad26Δ rpb7Δ + plasmid RPB7 library; outgrowth: 10 cell divisions
Experimental: as §1

Variant | log2 fold change of mutant abundance [1] | NOISeq theta enrichment statistic [2]
P127A | 0.259 | 0.29
S93A | 0.017 | 0.0585
E69L | 0.0647 | 0.0451
E69C | -0.626 | -0.335
Q57K | 0.047 | 0.179
Q57I | 0.224 | 0.164
G40R | -0.679 | -0.606
F2S | -0.0677 | -0.0744
F2L | 0.0371 | 0.101
K83I | 0.31 | 1.47
F3Y | -0.0409 | -0.111
F79V | -0.0646 | -0.169
C150R | -0.0975 | -0.266
L62W | -0.161 | -0.228
L62V | -0.327 | -0.449
L62M | -0.0485 | -0.247
I157N | 0.00138 | 0.00431
V72A | -0.0166 | -0.0526
V72T | 0.532 | 0.304
V72W | -0.0505 | -0.071

Record cards (already shown). Values in the order: log2 fold change of mutant abundance [1] | NOISeq theta enrichment statistic [2]
L62M in the list: -0.0485 | -0.247
F2S in the list: -0.0677 | -0.0744
V72T in the list: 0.532 | 0.304

The list goes on.

Variant | log2 fold change of mutant abundance [1] | NOISeq theta enrichment statistic [2]
R60T | 0.182 | 0.195
R60E | 0.231 | 0.235
R60S | 0.0149 | 0.0641
G36A | -0.207 | -0.218
D52A | -0.121 | -0.219
L114T | -0.049 | -0.0361
L49F | 0.459 | 0.43
F121R | 0.0321 | 0.0267
F121V | 0.0674 | 0.389
F121L | -0.0778 | -0.405
P81H | 0.0467 | 0.0843
L168W | 0.0887 | 0.122
L168S | 0.102 | 0.195
T90Y | 0.349 | 0.225
E32G | -0.00789 | -0.0201
I4F | 0.0748 | 0.0938
I4N | 0.197 | 0.293
I4V | 0.103 | 0.154
D65S | 0.0151 | 0.0125
D65G | 0.0295 | 0.0852

Variant | log2 fold change of mutant abundance [1] | NOISeq theta enrichment statistic [2]
D65N | 0.244 | 0.587
I54S | 0.103 | 0.0604
A159P | -0.0361 | -0.0321
G169C | -0.116 | -0.311
T28K | 0.0712 | 0.143
K146N | 0.014 | 0.0418
K146E | 0.126 | 0.309
Q153P | -0.361 | -0.413
I11S | 0.237 | 0.248
I11F | 0.213 | 0.472
T12S | -0.0765 | -0.339
K112H | 0.776 | 0.538
Y51V | 0.441 | 0.3
F109D | 0.064 | 0.0626
F109W | -0.356 | -0.282
S125V | 0.0916 | 0.0464
S125C | 0.424 | 0.306
I143S | 0.0033 | 0.00661
